{"sequences": {"note": "Protein sequences, listed by entry. Tags and fused reporters are not part of them. Lines headed by an entry give the natural chain unless they say otherwise; changes in a name come on top.", "UniProt P11473": "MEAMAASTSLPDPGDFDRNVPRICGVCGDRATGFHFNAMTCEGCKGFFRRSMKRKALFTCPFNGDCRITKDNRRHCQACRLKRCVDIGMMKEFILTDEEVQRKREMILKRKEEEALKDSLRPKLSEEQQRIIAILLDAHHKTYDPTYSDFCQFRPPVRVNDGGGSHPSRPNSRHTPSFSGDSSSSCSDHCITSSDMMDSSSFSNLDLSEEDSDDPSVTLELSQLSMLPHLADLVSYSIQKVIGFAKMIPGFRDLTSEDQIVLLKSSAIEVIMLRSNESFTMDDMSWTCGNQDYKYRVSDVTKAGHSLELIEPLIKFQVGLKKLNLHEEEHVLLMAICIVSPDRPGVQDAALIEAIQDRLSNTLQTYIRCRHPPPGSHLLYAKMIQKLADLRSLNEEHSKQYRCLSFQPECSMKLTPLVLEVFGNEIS"}, "source": "PubChem BioAssay AID504847", "about": "(National Center for Advancing Translational Sciences (NCATS), 2011)", "note": "Values joined by “and” are separate entries in the source; they are usually repeats but may differ in a detail not shown here. Equal entries are not always repeated. Among all 400,000 compounds or so, about 3,700 (0.93%) were called active. This list was built around the results that the source calls inconclusive (neither active nor inactive); the mix of calls is not that of the screen. Calls come from the whole dose curve; as a rule, active = well fitted inhibition curve with a large enough effect; inconclusive = small, poorly fitted or top-dose-only effect, or another doubt; inactive = no such curve, though single readings can be large or run the other way. Where the call is inconclusive, the potency comes from a doubtful curve fit. % is set by controls: 0 for no effect and ±100 for the full control effect; potency is the fitted concentration of half-maximal effect."}
{"target": "Vitamin D3 receptor (Homo sapiens) (UniProt P11473)", "assay": "Inhibitors of the vitamin D receptor (VDR): qHTS", "details": "VDR-SRC2-3 peptide fluorescence polarization, 2 h; max response, negative = inhibition: hits give low values", "method_in_brief": "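After 23 nl compound addition and a short centrifugation, plates sat for 2 hours at ambient temperature; polarization of fluorescence then indicated loss of VDR binding to peptide SRC2-3.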"}
{"smiles": "COc1cc(/C=C2/N=C(C3CCCCC3)OC2=O)cc(OC)c1OC", "Potency": "active: 39.8 µM"}
{"smiles": "Cc1cccc(Oc2nc3ccccn3c(=O)c2/C=C(\\C#N)C(=O)NC2CCS(=O)(=O)C2)c1", "note": "(stereo unspecified)", "Potency": "inconclusive: 79.4 µM [inhibitor, partial curve]"}
{"smiles": "O=C(O)c1cccc(NC2=C(Cl)C(=O)c3ccccc3C2=O)c1", "Potency": "inconclusive: 70.8 µM [inhibitor, single point]"}
{"smiles": "C[C@H](NC(=O)c1ccccc1)C(=O)N1CCC2(CC1)NCCc1[nH]cnc12", "Potency": "inconclusive: 39.8 µM [inhibitor, single point]"}
{"smiles": "COC(=O)c1cc([N+](=O)[O-])c(-n2ccnc2)c([N+](=O)[O-])c1", "Potency": "inconclusive: 79.4 µM [inhibitor, partial curve, poor fit]"}
{"smiles": "Fc1ccc(NC(=S)Nc2ccc3nccnc3c2)cc1", "Potency": "inconclusive: 89.1 µM [inhibitor, single point]"}
{"smiles": "Fc1ccc(Nc2nc(-c3ccoc3)nc3ccccc23)cc1", "Potency": "active: 15.8 µM"}
{"smiles": "Cc1cc(N2C(=O)C(O)=C(C(=O)c3cc4ccccc4o3)C2c2ccc(Br)cc2)no1", "note": "(stereo unspecified)", "Potency": "inconclusive: 63.1 µM [inhibitor, partial curve, poor fit]"}
{"smiles": "COc1ccc(NC(=O)c2sc(=S)[nH]c2N)cc1", "Potency": "active: 50.1 µM"}
{"smiles": "CC(C)Oc1ccc(C(=O)NCC(c2ccc(N(C)C)cc2)N2CCCC2)cc1", "note": "(stereo unspecified)", "max response, negative = inhibition": "inactive: 5.71%"}
{"smiles": "c1ccc(N2CCN(CCCOc3ccc4c(c3)OCO4)CC2)cc1", "max response, negative = inhibition": "inactive: 0.278% and inactive: 8.74%"}
{"smiles": "O=C1CSC(=S)N1N=Cc1ccccc1O", "Potency": "inconclusive: 50.1 µM [inhibitor, partial curve, poor fit]"}
{"smiles": "CC(C)N(C(=O)COC(=O)c1ccc(Cl)c(S(N)(=O)=O)c1)C(C)C", "Potency": "inconclusive: 79.4 µM [inhibitor, single point]"}
{"smiles": "CCOC(=O)c1[nH]c2cc3c(cc2c1NC(=O)CN1CC(C)CC(C)C1)OCO3", "note": "(stereo unspecified)", "Potency": "inconclusive: 89.1 µM [inhibitor, single point]"}
{"smiles": "Cc1cc(=O)oc2cc(OC(=O)c3cncc(Br)c3)ccc12", "Potency": "inconclusive: 79.4 µM [inhibitor, single point]"}
{"smiles": "O=C(CCc1ccc(S(=O)(=O)N2CCOCC2)cc1)N/N=C/c1ccc(F)cc1F", "max response, negative = inhibition": "inactive: -6.61%"}
{"smiles": "CCCCOc1ccc(C2=CSC3=NCCN23)cc1[N+](=O)[O-]", "Potency": "inconclusive: 56.2 µM [inhibitor, single point]"}
{"smiles": "Cc1cc(/C=C2\\SC(=S)N(C)C2=O)c(C)n1-c1ccc(O)cc1", "max response, negative = inhibition": "inactive: -15.3%"}
{"smiles": "c1csc(-c2cnc3ccccc3n2)c1", "max response, negative = inhibition": "inactive: -1.25%"}
{"smiles": "N#CC1=C(S)N=C(N)C(c2nc(-c3ccccc3)cs2)C12CCCC2", "note": "(stereo unspecified)", "Potency": "inconclusive: 56.2 µM [inhibitor, partial curve, poor fit]"}
{"smiles": "OCCCn1c(CCNc2nc(-c3ccc(F)cc3)cs2)nc2cc(C(F)(F)F)ccc21", "Potency": "inconclusive: 89.1 µM [inhibitor, partial curve, poor fit]"}
{"smiles": "CCOP(=O)(OCC)C(C#N)=C1SCN(c2ccc(Cl)cc2)CS1", "Potency": "inconclusive: 20 µM [inhibitor, full curve, poor fit]"}
{"smiles": "Cc1cc(O)c(C(=O)/C=C/c2ccc(Cl)cc2)c(=O)o1", "Potency": "inconclusive: 89.1 µM [inhibitor, single point]"}
{"smiles": "CCS(=O)(=O)c1ncc(Cl)c(C(=O)Nc2ccccc2)n1", "Potency": "inconclusive: 39.8 µM [inhibitor, single point]"}
{"smiles": "CCNC(=O)CSc1nnc(-c2ccccc2)n1-c1ccc(OCC)cc1", "max response, negative = inhibition": "inactive: 9.23%"}
{"smiles": "O=C1Nc2cc(Cl)ccc2Nc2cscc21", "Potency": "inconclusive: 56.2 µM [inhibitor, partial curve, poor fit]"}
{"smiles": "CCOc1cc(-c2ccc(OC(=O)c3ccc(OC)cc3)c(OC)c2)cc(=O)c2c(C)oc(C)c12", "Potency": "inconclusive: 31.6 µM [inhibitor, partial curve, poor fit]"}
{"smiles": "Nc1nnc(SC2CCCC2)s1", "Potency": "inconclusive: 39.8 µM [inhibitor, partial curve]"}
{"smiles": "CCOC(=O)C1CCN(Cc2cc(=O)oc3cc(C)c(Cl)cc23)CC1", "Potency": "inconclusive: 12.6 µM [inhibitor, partial curve]"}
{"smiles": "N#Cc1c(-c2ccccc2Cl)cc(-c2ccccc2)nc1Br", "Potency": "inconclusive: 89.1 µM [inhibitor, single point]"}
{"smiles": "COc1ccccc1OCc1nc(C#N)c(NCc2ccc(C)cc2)o1", "max response, negative = inhibition": "inactive: 13.1%"}
{"smiles": "C#C[C@]1(O)CC[C@H]2[C@H]3[C@H](CC[C@@]21C)C1=C(CC(=O)CC1)C[C@@H]3C", "Potency": "inconclusive: 39.8 µM [inhibitor, partial curve]"}
{"smiles": "O=C(O)/C=C/c1cn(Cc2ccccc2Cl)nc1-c1ccccc1", "Potency": "inconclusive: 15.8 µM [inhibitor, partial curve, poor fit]"}
{"smiles": "CCOC(=S)SCc1cn2ccc(C)cc2n1", "Potency": "inconclusive: 89.1 µM [inhibitor, single point]"}
{"smiles": "CCOC(=O)c1c(-c2ccc(-c3ccccc3)cc2)csc1NC(=O)CNCCN(C)C", "max response, negative = inhibition": "inactive: 2.63%"}
{"smiles": "O/C(=C\\c1nc2ccccc2[nH]1)c1cccs1", "Potency": "inconclusive: 56.2 µM [inhibitor, partial curve, poor fit]"}
{"smiles": "Cc1ccc(S(=O)(=O)/N=C(/Nc2ccc3[nH]c(=O)[nH]c3c2)c2ccccc2)cc1", "Potency": "inconclusive: 89.1 µM [inhibitor, partial curve, poor fit]"}
{"smiles": "COc1cccc2sc(NNC(=O)c3nc4ccccc4s3)nc12", "Potency": "inconclusive: 56.2 µM [inhibitor, partial curve, poor fit]"}
{"smiles": "CC(C)(C)c1cc(CN(CCO)CCO)cc(C(C)(C)C)c1O", "Potency": "inconclusive: 15.8 µM [inhibitor, full curve, poor fit]"}
{"smiles": "CCOC(=O)c1c(NC(=O)COc2ccc(C)cc2C(C)(C)C)sc2c1CCC(C)C2", "note": "(stereo unspecified)", "max response, negative = inhibition": "inactive: 1.26%"}
{"smiles": "COc1ccc2[nH]cc(CCNC(=O)c3cnn(-c4ccc(C)cc4)c3C3CCN(C(=O)OC(C)(C)C)CC3)c2c1", "max response, negative = inhibition": "inactive: 8.64%"}
